Biological target: T1, L-phenylalanine dehydrogenase produced by Bacillus sp. SCRC-R79a (Lysinibacillus sphaericus, UniProt P23307)
T1 sequence (P23307 1-381): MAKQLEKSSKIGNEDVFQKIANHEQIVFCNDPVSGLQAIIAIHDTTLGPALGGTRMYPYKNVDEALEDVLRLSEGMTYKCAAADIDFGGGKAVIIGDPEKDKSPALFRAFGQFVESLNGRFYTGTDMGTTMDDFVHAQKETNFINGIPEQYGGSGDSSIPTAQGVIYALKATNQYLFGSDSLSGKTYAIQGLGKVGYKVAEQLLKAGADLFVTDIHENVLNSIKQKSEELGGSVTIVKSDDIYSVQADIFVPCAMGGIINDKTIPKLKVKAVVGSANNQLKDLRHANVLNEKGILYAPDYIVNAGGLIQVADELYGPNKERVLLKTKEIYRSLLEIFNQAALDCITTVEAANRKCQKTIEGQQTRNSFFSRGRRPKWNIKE
Conditions: pH 9.0; phenylpyruvate to L-phenylalanine as 100%

- relative rate of converting the α-keto acid to the L-amino acid: 176%
SMILES: O=C(O)C(=O)Cc1ccc(O)cc1 [4-hydroxyphenypylruvate]

From patent publication US4849345A, “L-phenylalanine dehydrogenase and use thereof” (priority 1985, dated 1989)
